# Values from PubChem BioAssay AID1159578 (Peter MacCallum Cancer Centre, 2015).
# Purpose: 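Genome-wide hunt for genes controlling movement of lymphatic endothelial cells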 (primary screen)
# System: human lymphatic endothelial cells
# Knock-down reagent: siRNA pool against human genes, 40 nM
# Time to read-out: 48 h after transfection
# Read-out: 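Cells stained with dye and imaged after a scratch; covered wound area and nuclei counted, duplicates averaged, migration set against mock wells and turned into a robust z-score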
# Direction: migration robust z-score: higher = faster migration into the scratch; migration relative to mock: higher = more scratch area covered than mock; nuclei per well: higher = more cells in the well
# Call rule: 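Pools averaging fewer than 3300 nuclei are never called; remaining pools count as changed when migration robust z lies outside -2 to 2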
# Meaning of the calls: active = migration changed; inactive = no migration change, or too few cells
# In all, the deposit lists about 18,000 reagents; shown is an unselected part. Of all reagents, about 1,030 (5.7%) got an active call. 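Inactive calls also include pools with fewer than 3300 nuclei, whose migration was not assessed.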 Raw values vary from plate to plate and are shown uncorrected. A number with no mark means an inactive call.
gene,migration robust z-score,migration class with cell-count check,migration relative to mock,"nuclei per well, duplicate mean"
CKAP4,1.38,migration z between -2 and 2; enough cells,1.25,3464
MED13L,1.97,migration z between -2 and 2; enough cells,1.4,6656
CHRNA3,0.08,migration z between -2 and 2; enough cells,0.82,3790
CLUL1,-1.6,migration z between -2 and 2; enough cells,0.47,6240
RFESD,-1.37,migration z between -2 and 2; enough cells,0.53,5026
MRPS30,0.62,migration z between -2 and 2; enough cells,0.92,5546
ATP5MK,-0.44,migration z between -2 and 2; enough cells,0.77,6630
COMTD1,1.48,migration z between -2 and 2; enough cells,1.09,5564
CHST13,-0.13,migration z between -2 and 2; enough cells,0.78,5380
RPRM,-0.83,migration z between -2 and 2; enough cells,0.64,6470
NR1D2,-0.32,migration z between -2 and 2; enough cells,0.75,3508
TRPM3,-3.45,under 3300 nuclei; migration not judged,0.14,3046
DUS1L,2.66 (active),migration z above 2; enough cells,1.58,5740
ZNF528,0.12,migration z between -2 and 2; enough cells,0.92,5728
RPA1,-1.27,migration z between -2 and 2; enough cells,0.56,3950
CANX,-0.04,migration z between -2 and 2; enough cells,0.88,5580
OLFML2A,-1.19,migration z between -2 and 2; enough cells,0.57,5240
CT55,-1.38,migration z between -2 and 2; enough cells,0.52,6323
SLC7A5,1.82,migration z between -2 and 2; enough cells,1.16,5088
CMTM8,-2.74 (active),migration z below -2; enough cells,0.19,3808
ETV3L,-0.28,migration z between -2 and 2; enough cells,0.82,5204
CALB2,-0.23,migration z between -2 and 2; enough cells,0.83,5476
RTL9,-0.34,migration z between -2 and 2; enough cells,0.8,6630
AMELY,-1.09,migration z between -2 and 2; enough cells,0.6,4862
GPRASP3,-0.58,migration z between -2 and 2; enough cells,0.74,6993
ORM2,-1.9,migration z between -2 and 2; enough cells,0.4,4546
KRTAP2-4,-1.58,migration z between -2 and 2; enough cells,0.48,5294
LKAAEAR1,-0.86,migration z between -2 and 2; enough cells,0.64,4642
LINC03042,1.52,migration z between -2 and 2; enough cells,1.28,6580
WDR12,0.74,migration z between -2 and 2; enough cells,1.08,5736
FAM124A,-0.56,migration z between -2 and 2; enough cells,0.74,5300
TRMU,2.36 (active),migration z above 2; enough cells,1.26,5054
MSH5,0.36,migration z between -2 and 2; enough cells,0.88,5534
RBM8A,-0.32,migration z between -2 and 2; enough cells,0.8,4776
PROS1,-0.32,migration z between -2 and 2; enough cells,0.74,4321
HOXB3,0.1,migration z between -2 and 2; enough cells,0.82,5236
CYP2A13,1.74,migration z between -2 and 2; enough cells,1.14,4599
CSRP3,1.14,migration z between -2 and 2; enough cells,1.18,5313
S100A6,-1.46,migration z between -2 and 2; enough cells,0.52,3756

In a second layout: results already given.
gene	migration robust z-score	migration class with cell-count check	migration relative to mock	nuclei per well, duplicate mean
CKAP4	1.38	migration z between -2 and 2; enough cells	1.25	3464
MED13L	1.97	migration z between -2 and 2; enough cells	1.4	6656
CHRNA3	0.08	migration z between -2 and 2; enough cells	0.82	3790
